According to article PMC5153812:
Results are given in words; binding and its absence hold for the method and conditions named. Binding seen in cells or lysates may run through a third protein. Some binding calls cover weakened binding; strength is not graded here.

By UniProt entry, the sequences of proteins in these tests, tags left out.
UniProt Q9UBF6: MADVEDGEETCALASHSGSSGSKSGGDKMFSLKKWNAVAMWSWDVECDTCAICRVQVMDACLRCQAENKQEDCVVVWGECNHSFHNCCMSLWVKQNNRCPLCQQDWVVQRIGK
UniProt Q93034: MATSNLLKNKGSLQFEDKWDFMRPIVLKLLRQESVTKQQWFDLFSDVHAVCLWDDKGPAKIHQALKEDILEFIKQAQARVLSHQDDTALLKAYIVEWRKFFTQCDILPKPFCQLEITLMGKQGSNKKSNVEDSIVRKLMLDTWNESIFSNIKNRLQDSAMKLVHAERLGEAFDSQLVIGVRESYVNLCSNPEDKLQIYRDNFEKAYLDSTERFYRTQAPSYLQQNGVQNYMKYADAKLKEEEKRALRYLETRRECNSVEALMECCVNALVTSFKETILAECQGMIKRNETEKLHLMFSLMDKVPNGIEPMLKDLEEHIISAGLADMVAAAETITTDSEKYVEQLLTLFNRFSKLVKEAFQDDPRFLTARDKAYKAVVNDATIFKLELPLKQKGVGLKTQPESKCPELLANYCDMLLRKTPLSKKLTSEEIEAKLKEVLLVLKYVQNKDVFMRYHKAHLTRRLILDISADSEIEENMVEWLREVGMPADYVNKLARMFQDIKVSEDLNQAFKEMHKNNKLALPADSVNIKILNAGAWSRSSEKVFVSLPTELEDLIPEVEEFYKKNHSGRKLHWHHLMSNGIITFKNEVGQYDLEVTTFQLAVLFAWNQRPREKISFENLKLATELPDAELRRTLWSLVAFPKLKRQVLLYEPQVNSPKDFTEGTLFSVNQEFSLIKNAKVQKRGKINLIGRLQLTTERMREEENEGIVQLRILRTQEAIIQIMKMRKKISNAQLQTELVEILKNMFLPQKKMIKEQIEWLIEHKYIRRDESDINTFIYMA

Biological target: endogenous SAG (human (endogenous in DU145)) (UniProt Q9UBF6)
Test: co-IP; endogenous proteins; sub-confluent DU145 cells lysed and IP with anti-SAG (Fig. 3c), anti-PHLPP1 (Fig. 3d) or anti-DEPTOR Ab (Fig. 3e), along with IgG control, IB with indicated Abs; physiological unstressed condition

Cul5 (from UniProt Q93034 1-780)
binding: binds
